The record followed here is the supplement of paper PMC12819154, “High-throughput peptide-centric local stability assay extends protein–ligand identification to membrane proteins, tissues and bacteria” (Nature Structural & Molecular Biology, 2025).

Chains of the proteins cited; added tags and fusions are not shown. Lines headed by an entry give the natural chain unless they say otherwise; changes in a name come on top.
UniProt P11021: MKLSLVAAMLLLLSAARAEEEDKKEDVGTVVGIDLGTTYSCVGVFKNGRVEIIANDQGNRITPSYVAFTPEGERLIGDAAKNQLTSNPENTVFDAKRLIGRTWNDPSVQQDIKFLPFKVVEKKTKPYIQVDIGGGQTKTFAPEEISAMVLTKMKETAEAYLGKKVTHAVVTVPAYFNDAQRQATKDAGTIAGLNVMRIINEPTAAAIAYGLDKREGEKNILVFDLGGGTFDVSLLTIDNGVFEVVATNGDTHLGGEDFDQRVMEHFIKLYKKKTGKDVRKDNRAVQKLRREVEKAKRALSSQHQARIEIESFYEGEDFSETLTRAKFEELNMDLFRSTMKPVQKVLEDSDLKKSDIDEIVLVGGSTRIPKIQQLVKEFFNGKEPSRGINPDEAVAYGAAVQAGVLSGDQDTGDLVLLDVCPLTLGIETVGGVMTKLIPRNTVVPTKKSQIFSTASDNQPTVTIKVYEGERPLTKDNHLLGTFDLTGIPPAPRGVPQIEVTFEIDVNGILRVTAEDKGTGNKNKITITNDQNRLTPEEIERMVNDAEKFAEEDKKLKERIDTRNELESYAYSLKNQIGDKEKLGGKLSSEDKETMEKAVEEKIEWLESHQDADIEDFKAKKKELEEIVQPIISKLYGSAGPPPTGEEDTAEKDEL
UniProt P10588: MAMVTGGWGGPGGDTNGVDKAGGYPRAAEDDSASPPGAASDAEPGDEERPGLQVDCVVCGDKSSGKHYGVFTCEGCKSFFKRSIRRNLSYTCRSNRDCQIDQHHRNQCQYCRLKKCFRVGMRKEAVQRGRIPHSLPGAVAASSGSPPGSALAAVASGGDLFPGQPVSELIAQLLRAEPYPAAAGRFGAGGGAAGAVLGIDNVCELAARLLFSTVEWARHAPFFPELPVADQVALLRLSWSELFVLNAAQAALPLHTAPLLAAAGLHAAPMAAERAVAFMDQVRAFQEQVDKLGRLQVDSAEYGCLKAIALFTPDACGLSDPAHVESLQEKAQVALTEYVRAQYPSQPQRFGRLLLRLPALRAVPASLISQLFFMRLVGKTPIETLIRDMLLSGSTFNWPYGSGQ
UniProt P12757: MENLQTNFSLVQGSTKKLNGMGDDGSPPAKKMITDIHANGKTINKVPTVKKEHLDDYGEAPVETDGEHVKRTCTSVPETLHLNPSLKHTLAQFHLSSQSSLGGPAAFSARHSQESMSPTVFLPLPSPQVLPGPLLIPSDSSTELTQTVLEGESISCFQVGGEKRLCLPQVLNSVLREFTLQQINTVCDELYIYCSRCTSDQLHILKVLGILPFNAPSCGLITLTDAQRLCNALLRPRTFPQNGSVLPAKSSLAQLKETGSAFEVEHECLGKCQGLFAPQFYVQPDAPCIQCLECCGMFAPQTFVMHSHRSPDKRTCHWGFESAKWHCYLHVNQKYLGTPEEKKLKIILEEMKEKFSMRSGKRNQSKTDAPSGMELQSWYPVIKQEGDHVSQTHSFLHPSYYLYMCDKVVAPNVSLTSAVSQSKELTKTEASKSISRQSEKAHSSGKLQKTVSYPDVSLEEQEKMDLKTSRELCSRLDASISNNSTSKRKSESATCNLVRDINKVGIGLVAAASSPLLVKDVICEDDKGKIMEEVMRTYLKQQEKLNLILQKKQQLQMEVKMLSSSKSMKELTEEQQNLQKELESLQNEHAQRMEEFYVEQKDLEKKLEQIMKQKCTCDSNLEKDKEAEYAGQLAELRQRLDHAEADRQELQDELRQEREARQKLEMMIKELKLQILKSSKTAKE
UniProt P02795: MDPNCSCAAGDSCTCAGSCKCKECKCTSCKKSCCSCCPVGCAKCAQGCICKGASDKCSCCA
UniProt P07384: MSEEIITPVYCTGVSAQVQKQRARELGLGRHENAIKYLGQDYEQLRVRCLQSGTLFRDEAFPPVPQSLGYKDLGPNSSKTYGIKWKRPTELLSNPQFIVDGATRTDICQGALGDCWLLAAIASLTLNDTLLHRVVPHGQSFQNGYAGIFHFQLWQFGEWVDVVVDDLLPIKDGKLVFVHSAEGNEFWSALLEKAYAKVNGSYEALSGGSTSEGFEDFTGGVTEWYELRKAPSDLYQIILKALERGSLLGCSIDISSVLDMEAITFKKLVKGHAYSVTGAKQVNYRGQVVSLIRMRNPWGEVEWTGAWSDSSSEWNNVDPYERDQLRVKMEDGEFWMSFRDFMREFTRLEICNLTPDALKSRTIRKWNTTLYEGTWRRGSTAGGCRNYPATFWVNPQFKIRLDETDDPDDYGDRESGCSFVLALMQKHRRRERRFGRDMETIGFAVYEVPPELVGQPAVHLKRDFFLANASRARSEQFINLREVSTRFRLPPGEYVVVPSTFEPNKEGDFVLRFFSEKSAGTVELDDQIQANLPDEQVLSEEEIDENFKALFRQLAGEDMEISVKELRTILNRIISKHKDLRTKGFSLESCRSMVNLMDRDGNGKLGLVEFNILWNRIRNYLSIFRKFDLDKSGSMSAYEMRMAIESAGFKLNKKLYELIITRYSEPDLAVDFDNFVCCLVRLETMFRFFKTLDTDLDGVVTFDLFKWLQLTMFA

The list shows a part of the results. Small differences around the control level are noise.

Compound in the assay: Cc1nc(Nc2ncc(C(=O)Nc3c(C)cccc3Cl)s2)cc(N2CCN(CCO)CC2)n1 [dasatinib]
Description: log2 fold change of tryptic peptide abundance, ligand vs vehicle (limited proteolysis) (log2 ratio); higher = more trypsin-susceptible (destabilized). The following applies: ligand concentration: 5 uM; sample: K562 cleared lysate.
Turning to “HSPA5 (peptide sequence: NELESYAYSLK, peptide start residue: 563) (UniProt P11021)”, the log2 fold change amounted to 0.12. Then “NR2F6 (peptide sequence: AQYPSQPQR, peptide start residue: 341) (UniProt P10588)”, with -0.189; and “SKIL (peptide sequence: LDASISNNSTSK, peptide start residue: 476) (UniProt P12757)”, with -0.348; and “MT2A (peptide sequence: GASDKCSCCA, peptide start residue: 52) (UniProt P02795)”, with 0.165.

As for “CAPN1 (peptide sequence: QVNYRGQVVSLIR, peptide start residue: 281) (UniProt P07384)”, the log2 fold change was 0.56.

“HMGN2 (peptide sequence: KAEGDAKGDK, peptide start residue: 5) (UniProt P05204)”: the log2 fold change came to 0.191. Then “RAF1 (peptide sequence: DQIIFMVGR, peptide start residue: 516) (UniProt P04049)”, with 0.33.
